Some results were stated once for a whole list of compounds, not compound by compound.
Legend:
[1] = Stability of R5 and S5 in aqueous buffer (PBS); format: physicochemical; details: phosphate buffered saline pH 7.4, 25° C., after 1000 min
Description: Measurement of the Stability of R5 and S5 in Aqueous Buffer at pH 7.4 • Sample solution R5-PBS was prepared by adding 20 μL of R5 (10 mM in DMSO) to 180 μL of phosphate buffered saline (pH 7.4). • Sample solution S5-PBS was prepared by adding 20 μL of S5 (10 mM in DMSO) to 180 μL of phosphate buffered saline (pH 7.4). • Samples were incubated at 25° C. and analyzed by LCMS (Method 3) with Selected ion recording set to 924 Da (corresponding to [R5+2H]^2+/2 and [S5+2H]^2+/2) and to 933 Da (the main impurity being formed corresponding to hydrolyzed products [R5+H2O+2H]^2+/2 and [S5+H2O+2H]^2+/2). Samples were injected at the following time points: 0 min, 99 min, 195 min, 291 min, 387 min, 543 min, 699 min, 855 min, 980 min. Peak areas of the samples injected at 0 min were considered as reference peak areas. • % Peak Area was calculated as (924 Da peak area)/((924 Da peak area)+(933 Da peak area))×100%.
The same experiment was carried out in phosphate buffered saline at pH 6.0.

[2] = Plasma stability of albumin-bound R5 and S5; format: in vitro ADME; details: human plasma, 37° C., after 192 hours (8 days) of incubation

SMILES | compound hydrolyzed [1] | MMAE released from albumin-bound compound [2]
CC[C@H](C)[C@@H]([C@@H](CC(=O)N1CCC[C@H]1[C@H](OC)[C@@H](C)C(=O)N[C@H](C)[C@@H](O)c1ccccc1)OC)N(C)C(=O)[C@@H](NC(=O)[C@H](C(C)C)N(C)C(=O)O[C@H](Cc1cn(CCOCCOCCOCCOCCOCCOCCOCCOCCOCCOCCNC(=O)CCCCCN2C(=O)C=CC2=O)nn1)c1ccc(O[C@@H]2O[C@H](C(=O)O)[C@@H](O)[C@H](O)[C@H]2O)c([N+](=O)[O-])c1)C(C)C [R5] | 30-40% | less than 10%
CC[C@H](C)[C@@H]([C@@H](CC(=O)N1CCC[C@H]1[C@H](OC)[C@@H](C)C(=O)N[C@H](C)[C@@H](O)c1ccccc1)OC)N(C)C(=O)[C@@H](NC(=O)[C@H](C(C)C)N(C)C(=O)O[C@@H](Cc1cn(CCOCCOCCOCCOCCOCCOCCOCCOCCOCCOCCNC(=O)CCCCCN2C(=O)C=CC2=O)nn1)c1ccc(O[C@@H]2O[C@H](C(=O)O)[C@@H](O)[C@H](O)[C@H]2O)c([N+](=O)[O-])c1)C(C)C [S5] | 30-40% | less than 10%

Source: US20210023113A1, “CONJUGATE OF CYTOTOXIC DRUG AND PRODRUG FORM OF SAID CONJUGATE” (priority 2018, published 2021)
